Laboratory results as given in article PMC8351696.
No constants are given. Whether binding was seen depends on the method and setting. In cells and extracts the contact can be indirect. Some entries that bind do so weakly or less than the wild type.

Chains of the proteins cited; added tags and fusions are not shown.
UniProt P35226: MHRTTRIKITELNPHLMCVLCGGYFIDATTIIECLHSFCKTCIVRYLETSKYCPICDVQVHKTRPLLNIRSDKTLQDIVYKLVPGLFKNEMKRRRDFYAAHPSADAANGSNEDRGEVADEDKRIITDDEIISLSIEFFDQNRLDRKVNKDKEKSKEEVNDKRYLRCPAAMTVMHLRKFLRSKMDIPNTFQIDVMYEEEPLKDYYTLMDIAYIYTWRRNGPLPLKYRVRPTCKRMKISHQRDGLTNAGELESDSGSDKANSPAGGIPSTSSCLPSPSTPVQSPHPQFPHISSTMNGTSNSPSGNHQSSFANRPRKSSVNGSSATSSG

Biological target: B-cell specific Moloney murine leukemia virus integration region 1 (BMI1) (human (endogenous in T24)) (UniProt P35226)
Test: co-IP; T24 cells lysed; immunoprecipitated by anti-BMI1 and anti-p53 antibodies, immune complexes detected by anti-BMI1 and anti-p53, ECL

Substance: p53 (from UniProt P04637 1-393)
- binding: binds
